Data from patent US20250296994A1 (SYSMEX, published 2025).
Results are given in words; binding and its absence hold for the method and conditions named. Some binding calls cover weakened binding; strength is not graded here.

Experiments:
[1] = target: T1, human Crtac1B (cartilage acidic protein 1B), full length (human) (UniProt Q9NQ79); experiment: immunoprecipitation from human CSF and serum on protein G magnetic particles, then immunoblotting (Wes)
T1 sequence: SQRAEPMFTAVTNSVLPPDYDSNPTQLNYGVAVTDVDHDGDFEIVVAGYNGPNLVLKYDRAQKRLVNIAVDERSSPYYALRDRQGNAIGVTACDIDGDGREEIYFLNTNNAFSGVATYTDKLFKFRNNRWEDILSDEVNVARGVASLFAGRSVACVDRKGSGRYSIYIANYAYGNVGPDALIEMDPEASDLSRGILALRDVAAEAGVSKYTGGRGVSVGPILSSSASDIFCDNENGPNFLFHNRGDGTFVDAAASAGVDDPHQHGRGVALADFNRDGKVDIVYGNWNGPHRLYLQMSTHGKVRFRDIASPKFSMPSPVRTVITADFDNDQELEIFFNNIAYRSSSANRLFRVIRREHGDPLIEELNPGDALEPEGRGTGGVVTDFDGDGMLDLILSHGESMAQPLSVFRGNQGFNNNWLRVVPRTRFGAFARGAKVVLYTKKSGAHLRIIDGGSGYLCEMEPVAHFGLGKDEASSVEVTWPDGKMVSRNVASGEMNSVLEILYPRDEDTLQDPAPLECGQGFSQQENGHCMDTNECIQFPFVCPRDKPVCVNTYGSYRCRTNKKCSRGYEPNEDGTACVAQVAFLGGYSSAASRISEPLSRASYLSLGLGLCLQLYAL

[2] = target: T2, recombinant Crtac1B fragment #2 (human) (UniProt Q9NQ79); experiment: antigen immobilized ELISA, hybridoma culture supernatant
T2 sequence: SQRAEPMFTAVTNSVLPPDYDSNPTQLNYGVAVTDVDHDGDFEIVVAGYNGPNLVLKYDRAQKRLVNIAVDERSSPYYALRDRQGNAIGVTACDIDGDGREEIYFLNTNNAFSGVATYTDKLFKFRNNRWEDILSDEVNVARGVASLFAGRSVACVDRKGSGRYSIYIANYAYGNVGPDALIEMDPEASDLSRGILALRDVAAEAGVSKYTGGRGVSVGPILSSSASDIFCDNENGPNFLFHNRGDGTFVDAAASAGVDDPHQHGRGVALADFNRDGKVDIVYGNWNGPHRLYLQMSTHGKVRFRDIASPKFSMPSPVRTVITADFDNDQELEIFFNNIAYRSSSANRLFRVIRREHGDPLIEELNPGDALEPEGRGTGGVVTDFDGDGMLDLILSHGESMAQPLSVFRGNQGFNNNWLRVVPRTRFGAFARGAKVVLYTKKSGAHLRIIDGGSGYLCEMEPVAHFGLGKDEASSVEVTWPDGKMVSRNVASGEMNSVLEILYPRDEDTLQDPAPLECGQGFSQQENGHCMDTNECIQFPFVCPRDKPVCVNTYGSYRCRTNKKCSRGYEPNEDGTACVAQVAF

[3] = target: T3, recombinant Crtac1B fragment #1 (human) (UniProt Q9NQ79); experiment: as above
T3 sequence: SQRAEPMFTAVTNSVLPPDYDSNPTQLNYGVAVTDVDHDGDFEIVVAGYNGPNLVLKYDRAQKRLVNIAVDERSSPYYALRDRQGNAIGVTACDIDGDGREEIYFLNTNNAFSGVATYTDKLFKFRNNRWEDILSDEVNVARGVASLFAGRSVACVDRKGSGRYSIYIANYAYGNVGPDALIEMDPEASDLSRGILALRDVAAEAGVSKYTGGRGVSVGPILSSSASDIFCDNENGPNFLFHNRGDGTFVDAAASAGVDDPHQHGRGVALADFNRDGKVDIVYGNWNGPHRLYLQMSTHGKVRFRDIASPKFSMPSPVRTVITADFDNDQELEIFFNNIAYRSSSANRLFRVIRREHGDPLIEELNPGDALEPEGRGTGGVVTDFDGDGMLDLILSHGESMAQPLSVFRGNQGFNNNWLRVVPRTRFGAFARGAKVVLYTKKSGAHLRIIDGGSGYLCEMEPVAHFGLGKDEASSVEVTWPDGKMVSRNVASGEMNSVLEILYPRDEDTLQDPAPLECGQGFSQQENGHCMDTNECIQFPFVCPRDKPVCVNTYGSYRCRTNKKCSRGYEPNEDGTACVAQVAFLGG

[4] = target: T4, recombinant Crtac1B fragment #3 (human) (UniProt Q9NQ79); experiment: as above
T4 sequence: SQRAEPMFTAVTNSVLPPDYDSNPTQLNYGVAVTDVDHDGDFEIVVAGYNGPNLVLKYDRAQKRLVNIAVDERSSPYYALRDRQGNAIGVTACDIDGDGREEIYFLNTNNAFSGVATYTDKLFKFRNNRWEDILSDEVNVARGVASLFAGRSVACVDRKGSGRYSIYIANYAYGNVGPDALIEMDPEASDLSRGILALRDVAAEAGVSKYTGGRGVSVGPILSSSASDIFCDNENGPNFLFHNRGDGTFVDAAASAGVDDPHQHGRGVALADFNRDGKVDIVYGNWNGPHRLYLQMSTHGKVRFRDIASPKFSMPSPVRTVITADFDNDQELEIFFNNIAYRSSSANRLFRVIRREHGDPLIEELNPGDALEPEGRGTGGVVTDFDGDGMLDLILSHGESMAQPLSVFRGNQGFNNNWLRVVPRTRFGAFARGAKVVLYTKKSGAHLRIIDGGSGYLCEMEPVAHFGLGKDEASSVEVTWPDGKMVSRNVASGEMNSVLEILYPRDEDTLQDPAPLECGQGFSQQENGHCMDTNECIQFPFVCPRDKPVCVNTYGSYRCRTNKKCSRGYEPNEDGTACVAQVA

[5] = target: T5, recombinant Crtac1B fragment #4 (human) (UniProt Q9NQ79); experiment: as above
T5 sequence: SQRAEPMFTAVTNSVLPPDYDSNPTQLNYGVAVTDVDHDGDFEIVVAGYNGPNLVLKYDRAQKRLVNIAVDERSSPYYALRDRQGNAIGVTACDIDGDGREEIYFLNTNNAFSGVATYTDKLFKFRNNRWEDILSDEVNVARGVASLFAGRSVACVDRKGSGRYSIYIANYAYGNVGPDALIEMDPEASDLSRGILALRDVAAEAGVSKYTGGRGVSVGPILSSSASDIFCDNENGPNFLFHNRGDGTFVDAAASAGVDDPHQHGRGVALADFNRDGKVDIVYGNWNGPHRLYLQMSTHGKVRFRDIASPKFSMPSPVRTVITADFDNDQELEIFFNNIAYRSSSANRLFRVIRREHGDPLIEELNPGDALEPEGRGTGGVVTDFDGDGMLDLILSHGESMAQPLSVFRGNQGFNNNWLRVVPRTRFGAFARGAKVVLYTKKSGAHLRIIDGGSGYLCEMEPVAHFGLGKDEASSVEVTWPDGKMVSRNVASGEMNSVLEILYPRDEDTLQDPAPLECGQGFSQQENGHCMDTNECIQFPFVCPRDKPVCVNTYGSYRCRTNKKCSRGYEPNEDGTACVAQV

Measured: binding

B1: monoclonal antibody derived from the hybridoma of clone 1B4 (antibody, mouse IgG1, kappa, V domains shown)
VH: EVQLQQFGAELVKPGASVKISCKASGYTFTDYNMDWVKQSHGKSLEWIGDINPNYDSSSYNQKFKGKATLTVDKSSSTAYMELRSLTSEDTAVYYCTRSGGTYWGQGTLVTVSA
VL: DIQMNQSPSSLSASLGDTITITCHASQNINVWLSWYQQKPGNIPKLLIYKASNLHTGVPSRFSGSGSGTGFSLTISSLQPEDIATYYCQQAQSYPRTFGGGTKLEIKR
notes: It is kept apart because the two clones were tested separately; Mouse IgG1; Leader ranges were derived as for m1
binds: [1] | [2] | [3] | [4] | [5]
